PubChem BioAssay AID504774, Drosophila RNAi Screening Center, 2011

Screen: 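Genes required for cells to withstand methyl methanesulphonate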 (primary screen)
Cell system: Drosophila Kc167 cells
Knock-down reagent: long dsRNA against Drosophila genes, about 0.25 µg dsRNA per well
Timing: about 6 days: 3 days knock-down, then 3 days with or without MMS
Conditions: methyl methanesulphonate 0.004% (w/v) for 3 days after knock-down
Detection: 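Viability in wells given MMS, read as ATP luminescence, normalised by quantiles plate by plate and averaged across replicates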
Direction: mean viability with MMS and viability with MMS: higher = more surviving cells after MMS
The screen tested about 23,000 reagents; shown is an unselected part of those that have a named target and a result. 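Values are quantile-normalised luminescence on an arbitrary scale; higher means more cells surviving MMS.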 Reagents against one gene are numbered here. A plus sign joins genes that one reagent is predicted to hit.

no.	target	reagent no.	mean viability with MMS	viability with MMS, replicate 1	viability with MMS, replicate 2
1	Rcc1 (GeneID 38669)	1	3.63e6	4.06e6	4.18e6
2	Sec61gamma (GeneID 32968)	1	3.44e6	3.87e6	3.94e6
3	Dera (GeneID 36358)	1	3.63e6	4.00e6	4.24e6
4	Dera (GeneID 36358)	2	3.77e6	4.27e6	4.21e6
5	Ran (GeneID 44072)	1	3.25e6	3.78e6	3.73e6
6	AkhR (GeneID 33942)	1	3.46e6	3.84e6	3.92e6
7	CG31210 (retired record) + CG4836	1	3.69e6	4.19e6	4.09e6
8	CG7509 (GeneID 38579)	1	3.53e6	3.95e6	4.06e6
9	CG42717 (GeneID 10178897)	1	3.75e6	4.26e6	4.19e6
10	kibra (GeneID 41783)	1	3.54e6	3.92e6	4.13e6
11	kibra (GeneID 41783)	2	2.76e6	3.48e6	3.52e6
12	kibra (GeneID 41783)	3	3.63e6	4.08e6	4.15e6
13	CG34175 (GeneID 5740264)	1	3.67e6	4.12e6	4.14e6
14	CG14346 (GeneID 33325)	1	3.43e6	3.83e6	3.91e6
15	tplus3a + tplus3b	1	3.46e6	4.05e6	3.82e6
16	per (GeneID 31251)	1	3.51e6	4.06e6	3.91e6
17	CG11594 (GeneID 38473)	1	3.73e6	4.14e6	4.33e6
18	MED25 (GeneID 42385)	1	2.77e6	3.55e6	3.56e6
19	MED25 (GeneID 42385)	2	3.58e6	4.08e6	4.05e6
20	mRpL13 (GeneID 35145)	1	3.69e6	4.19e6	4.13e6
21	CG11327 (GeneID 33940)	1	3.55e6	4.05e6	3.98e6
22	CG13300 (GeneID 38730)	1	3.22e6	3.59e6	3.59e6
23	CG13426 (GeneID 37312)	1	3.42e6	4.00e6	3.72e6
24	h-cup + Rbp	1	3.59e6	4.00e6	4.18e6
25	CG42780 (GeneID 10178796)	1	3.54e6	4.02e6	4.01e6
26	ND-13A (GeneID 33744)	1	3.53e6	3.90e6	4.10e6
27	PIG-H + Kmn2	1	3.42e6	3.99e6	3.77e6
28	in (GeneID 40246)	1	3.54e6	4.06e6	3.98e6
29	Reph (GeneID 47399)	1	3.82e6	4.32e6	4.38e6
30	Reph (GeneID 47399)	2	3.54e6	4.05e6	3.97e6
31	CG15864 (GeneID 50001)	1	3.40e6	3.91e6	3.82e6
32	CG31125 (GeneID 318599)	1	3.34e6	3.70e6	3.85e6
33	gas (GeneID 37572)	1	3.40e6	3.80e6	3.86e6
34	CG32280 (GeneID 317952)	1	3.41e6	3.78e6	3.93e6
35	Nhe2 (GeneID 35376)	1	3.36e6	3.80e6	3.76e6
36	Nhe2 (GeneID 35376)	2	3.64e6	4.12e6	4.13e6
37	kat80 (GeneID 32581)	1	3.49e6	4.01e6	3.89e6
38	kat80 (GeneID 32581)	2	3.51e6	4.01e6	3.96e6
39	Bili (GeneID 43019)	1	3.23e6	3.69e6	3.70e6
40	CG31743 + CG34313	1	3.49e6	3.95e6	3.96e6
41	CG31743 + CG34313	2	3.44e6	3.94e6	3.88e6
42	fal (GeneID 43927)	1	3.42e6	3.94e6	3.79e6
43	trpl (GeneID 36003)	1	3.45e6	3.93e6	3.91e6
44	trpl (GeneID 36003)	2	3.44e6	3.72e6	4.10e6
45	CG34280 (GeneID 5740878)	1	3.47e6	3.99e6	3.88e6
46	CG7810 (GeneID 34139)	1	3.71e6	4.09e6	4.34e6
47	CG32295 (GeneID 317962)	1	3.47e6	3.98e6	3.94e6
48	Bulli (GeneID 38734)	1	3.46e6	3.97e6	3.89e6
49	CG14322 (GeneID 42124)	1	3.55e6	4.09e6	3.95e6
50	CR31700 (GeneID 8673969)	1	3.66e6	4.11e6	4.16e6
51	CG15140 (GeneID 5740546)	1	3.66e6	4.05e6	4.19e6
52	Hrs (GeneID 33458)	1	3.44e6	3.88e6	3.83e6
53	nes (GeneID 40093)	1	3.52e6	4.14e6	3.84e6
54	UbcE2M (GeneID 38916)	1	3.30e6	3.78e6	3.76e6
55	CG4911 (GeneID 39043)	1	3.57e6	4.14e6	3.96e6
56	LIMK1 (GeneID 32207)	1	3.52e6	4.09e6	3.89e6
57	CG1075 (retired record) (GeneID 40742)	1	3.65e6	4.11e6	4.16e6
58	CG12341 (GeneID 36137)	1	3.44e6	3.88e6	3.93e6
59	promL (GeneID 38372)	1	3.71e6	4.32e6	4.11e6
60	DCTN5-p25 (GeneID 34873)	1	3.47e6	3.89e6	3.99e6
61	mRpL36 (GeneID 59151)	1	3.38e6	3.82e6	3.80e6
62	Rab26 (GeneID 40359)	1	3.26e6	3.68e6	3.70e6
63	Rab26 (GeneID 40359)	2	3.39e6	3.94e6	3.69e6
64	Rab26 (GeneID 40359)	3	3.42e6	3.97e6	3.75e6
65	CG17839 (GeneID 39616)	1	3.47e6	4.00e6	3.86e6
66	CG17839 (GeneID 39616)	2	3.46e6	3.91e6	3.89e6
67	CG17068 (GeneID 33024)	1	3.66e6	4.13e6	4.22e6
68	CG13375 (GeneID 30976)	1	3.54e6	4.04e6	4.01e6

3 of these entries, reformatted:
target | reagent no. | mean viability with MMS | viability with MMS, replicate 1 | viability with MMS, replicate 2
ND-13A (GeneID 33744) | 1 | 3.53e6 | 3.90e6 | 4.10e6
PIG-H + Kmn2 | 1 | 3.42e6 | 3.99e6 | 3.77e6
in (GeneID 40246) | 1 | 3.54e6 | 4.06e6 | 3.98e6
